The nature of this series: Corrosion rate by weight loss and pitting of carbon steel coupons immersed in the formulations. As to conditions: seven days immersion, versus control formulation.

This note sets out measurements from US20220346382A1, “COMPOSITION FOR TREATING AND PREVENTING BACTERIAL GROWTH ON A SUBSTRATE” (PETROLIAM NASIONAL BERHAD (PETRONAS), priority 2019, published 2022).

Consider “tetrakis hydroxymethyl phosphonium sulfate [THPS, reference compound]”, for which the “effect on corrosion rate” value was “not effective to reduce the corrosion rate”.
